Results are given in words; binding and its absence hold for the method and conditions named. A result given as binding can be weak or reduced; the word gives no strength.
Biological target: nucleocapsid protein (NP) of rice stripe virus, bait in pDHB1 (rice stripe virus) (UniProt P68559)
Experiment: two-hybrid; split-ubiquitin yeast two-hybrid (DUALhunter), yeast strain NMY51; bait pDHB1-viral protein, prey pPR3-LsST6; growth on QDO (SD-trp-leu-his-ade) with 20 mM 3-AT, 30°C; β-galactosidase activity assay of clones grown on DDO

Sequences of proteins named here, by UniProt entry; tags and fusion partners are left off.
UniProt P68559: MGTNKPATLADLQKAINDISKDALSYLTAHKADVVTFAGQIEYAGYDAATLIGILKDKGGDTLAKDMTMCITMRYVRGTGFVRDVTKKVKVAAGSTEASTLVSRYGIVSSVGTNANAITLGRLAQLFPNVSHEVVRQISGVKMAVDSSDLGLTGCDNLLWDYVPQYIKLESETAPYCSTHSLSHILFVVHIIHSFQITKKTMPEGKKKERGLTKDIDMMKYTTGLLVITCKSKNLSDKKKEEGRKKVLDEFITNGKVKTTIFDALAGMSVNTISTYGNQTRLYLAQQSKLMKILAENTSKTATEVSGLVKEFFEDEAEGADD

Question: For “sugar transporter 6 of Laodelphax striatellus (LsST6), prey in pPR3-N (from UniProt A0A345BJV6)”, which binding is on record?
Answer: The binding was “binds”.

Source: article PMC6082570
